For some assays here: Expression grades refer to the transcript from which the peptide derives; gene names, where given, were looked up from the sequence.
Assays:
[1] = tested on: other tumor types (measured tumor samples); assay: Presentation of the peptides on additional tumor types (LC-MS of HLA ligands); set-up: species or system human; settings: for Other relevant organs/diseases: additional tumor types on which the peptide was over-presented on more than 5% of measured tumor samples, or presented on more than 5% with ratio of geometric means tumor vs normal tissues larger than 3
[2] = tested on: source genes of the peptides in AML; assay: Expression profiling of genes encoding the peptides (RNAseq), tumors vs normal tissues; set-up: species or system human; key: very highly over-expressed in tumors compared to a panel of normal tissues (+++); highly over-expressed in tumors compared to a panel of normal tissues (++); over-expressed in tumors compared to a panel of normal tissues (+); settings: expression score of source gene, tumors (AML) compared to panel of normal tissues

Substance	Other relevant organs/diseases [1]	Gene Expression [2]	other results
1: peptide found in GNA15 (gene looked up) (LLDSAVYYL; listed as Homo sapiens) [compound 1]	Melanoma, Esophageal Cancer, Urinary bladder cancer, Uterine Cancer, Gallbladder Cancer, Bile Duct Cancer	+++	
3: peptide found in DNTT (gene looked up) (ALYDKTKRIFL; listed as Homo sapiens) [compound 3]		+++	
4: peptide found in DNTT (gene looked up) (FLPDAFVTM; listed as Homo sapiens) [compound 4]		+++	
5: peptide found in DNTT (gene looked up) (FLYYEDLVSC; listed as Homo sapiens) [compound 5]		+++	
41: peptide found in POLQ (gene looked up) (ALFILPFVSV; listed as Homo sapiens) [compound 41]		++	
63: peptide found in UHRF1 (gene looked up) (RLNDTIQLL; listed as Homo sapiens) [compound 63]		++	
103: peptide found in NLRP3 (gene looked up) (ALGDFGIRL; listed as Homo sapiens) [compound 103]	Melanoma, Esophageal Cancer, Gallbladder Cancer, Bile Duct Cancer	+++	
165: peptide found in NPR3 (gene looked up) (SLVDRVAAA; listed as Homo sapiens) [compound 165]		++	
170 (IVTEVAVGV; listed as Homo sapiens) [compound 170]	RCC, CLL, NHL, Melanoma, Uterine Cancer		
172 (KLLWGDIMEL; listed as Homo sapiens) [compound 172]	Gallbladder Cancer, Bile Duct Cancer		
173 (KMQETLVGL; listed as Homo sapiens) [compound 173]	Brain Cancer, PrC, NHL, BRCA, Melanoma, Esophageal Cancer, Gallbladder Cancer, Bile Duct Cancer		
174 (NLTENLQYV; listed as Homo sapiens) [compound 174]	NHL		
182: peptide found in GNA15 (gene looked up) (SLSEYDQCL; listed as Homo sapiens) [compound 182]		+++	
183 (SVIGVSPAV; listed as Homo sapiens) [compound 183]	Brain Cancer, NHL, BRCA, Melanoma		
184 (RMTDQEAIQDL; listed as Homo sapiens) [compound 184]	NHL, Melanoma		
185 (RLIPIIVLL; listed as Homo sapiens) [compound 185]	SCLC, NHL, Gallbladder Cancer, Bile Duct Cancer		
186 (IILDEAHNV; listed as Homo sapiens) [compound 186]	CLL, NHL, Melanoma, Uterine Cancer		
187 (MLPPPPLTA; listed as Homo sapiens) [compound 187]	SCLC, RCC, Brain Cancer, CLL, NHL, BRCA, Melanoma, Esophageal Cancer, Urinary bladder cancer, Uterine Cancer, Gallbladder Cancer, Bile Duct Cancer		
188 (RLLDFPTLL; listed as Homo sapiens) [compound 188]	SCLC, RCC, CRC, HCC, CLL, NHL, BRCA, OC		
SEQ ID NO.: 1: peptide found in GNA15 (gene looked up) (LLDSAVYYL; listed as Homo sapiens)			peptide additionally detected on tumor samples (positive/measured) ([1]; esophageal cancers): 2/17; peptide additionally detected on tumor samples (positive/measured) ([1]; gallbladder and bile duct cancers): 1/17; peptide additionally detected on tumor samples (positive/measured) ([1]; melanomas): 2/18; peptide additionally detected on tumor samples (positive/measured) ([1]; non-small cell lung cancers): 4/85; peptide additionally detected on tumor samples (positive/measured) ([1]; ovarian cancers): 1/20; peptide additionally detected on tumor samples (positive/measured) ([1]; urinary bladder cancers): 1/15; peptide additionally detected on tumor samples (positive/measured) ([1]; uterine cancers): 1/16
SEQ ID NO.: 7 (LLWGDIMEL; listed as Homo sapiens)			peptide additionally detected on tumor samples (positive/measured) ([1]; non-hodgkin lymphomas): 2/20
SEQ ID NO.: 10 (VILDPVHSV; listed as Homo sapiens)			peptide additionally detected on tumor samples (positive/measured) ([1]; breast cancers): 1/18; peptide additionally detected on tumor samples (positive/measured) ([1]; non-hodgkin lymphomas): 2/20; peptide additionally detected on tumor samples (positive/measured) ([1]; non-small cell lung cancers): 1/85; peptide additionally detected on tumor samples (positive/measured) ([1]; ovarian cancers): 1/20; peptide additionally detected on tumor samples (positive/measured) ([1]; small cell lung cancers): 1/17; peptide additionally detected on tumor samples (positive/measured) ([1]; uterine cancers): 1/16
